These are yes or no findings as the source states them, for the method shown. Binding seen in cells or lysates may run through a third protein. Some binding calls cover weakened binding; strength is not graded here. Sequences can lack the tags named with a protein.
What was measured:
[1] = target: HA-Cse4 overexpressed from the GAL promoter (GAL-HA-CSE4, pMB1597) (S. cerevisiae) (UniProt P36012); experiment: co-IP; IP with anti-HA agarose from whole cell extracts of yeast; HA-Cse4 transiently induced from the GAL promoter in galactose medium for 3 hours at 25°C; extraction buffer 40mM Hepes pH7.5, 350mM NaCl, 0.1% Tween, 10% glycerol; 4°C overnight; Western blot with anti-Myc and anti-HA
[2] = target: T1, HA-Cdc4 (cdc4Δ::HA-CDC4 strain YMB10217) (S. cerevisiae) (UniProt P07834); experiment: co-IP; IP with anti-HA agarose from whole cell extracts of yeast grown in selective glucose medium at 25°C; all tagged proteins from their native promoters; extraction buffer 40mM Hepes pH7.5, 350mM NaCl, 0.1% Tween, 10% glycerol; 4°C overnight; WT strains, also cdc4-1 (Met30 with Cse4 not affected) and met30-6 (Cdc4 with Cse4 greatly reduced, restored by plasmid-borne MET30 or met30ΔD)
T1 sequence: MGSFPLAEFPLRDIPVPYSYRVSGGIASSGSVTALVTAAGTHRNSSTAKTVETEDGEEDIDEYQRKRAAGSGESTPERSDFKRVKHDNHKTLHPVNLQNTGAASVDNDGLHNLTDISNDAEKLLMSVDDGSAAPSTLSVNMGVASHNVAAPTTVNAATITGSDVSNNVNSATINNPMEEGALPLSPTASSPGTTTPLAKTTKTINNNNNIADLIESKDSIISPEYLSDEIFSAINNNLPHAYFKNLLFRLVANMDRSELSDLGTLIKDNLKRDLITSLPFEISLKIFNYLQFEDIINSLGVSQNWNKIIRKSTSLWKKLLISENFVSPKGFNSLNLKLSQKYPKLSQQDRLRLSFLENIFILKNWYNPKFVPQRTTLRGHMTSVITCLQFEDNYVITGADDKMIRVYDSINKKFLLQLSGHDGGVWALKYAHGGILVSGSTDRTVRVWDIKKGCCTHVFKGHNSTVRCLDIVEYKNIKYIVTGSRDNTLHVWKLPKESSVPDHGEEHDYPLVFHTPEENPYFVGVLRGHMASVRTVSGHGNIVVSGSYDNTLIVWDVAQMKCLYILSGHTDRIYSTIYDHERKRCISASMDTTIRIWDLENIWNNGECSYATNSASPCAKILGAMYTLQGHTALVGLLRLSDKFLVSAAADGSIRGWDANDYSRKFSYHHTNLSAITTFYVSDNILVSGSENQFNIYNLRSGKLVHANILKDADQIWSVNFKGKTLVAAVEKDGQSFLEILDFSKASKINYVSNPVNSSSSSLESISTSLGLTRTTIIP

[3] = target: HA-Cse4 expressed from the CSE4 promoter (HA-CSE4, pMB1831) (S. cerevisiae) (UniProt P36012); experiment: as above
[4] = target: T2, Myc-Met30 (Myc-MET30, pK699) (S. cerevisiae) (UniProt P39014); experiment: co-IP; IP with anti-Myc from whole cell extracts of the cdc4Δ::HA-CDC4 strain with Myc-MET30, grown at 25°C; tagged proteins from their native promoters; Western blot with anti-HA and anti-Myc
T2 sequence: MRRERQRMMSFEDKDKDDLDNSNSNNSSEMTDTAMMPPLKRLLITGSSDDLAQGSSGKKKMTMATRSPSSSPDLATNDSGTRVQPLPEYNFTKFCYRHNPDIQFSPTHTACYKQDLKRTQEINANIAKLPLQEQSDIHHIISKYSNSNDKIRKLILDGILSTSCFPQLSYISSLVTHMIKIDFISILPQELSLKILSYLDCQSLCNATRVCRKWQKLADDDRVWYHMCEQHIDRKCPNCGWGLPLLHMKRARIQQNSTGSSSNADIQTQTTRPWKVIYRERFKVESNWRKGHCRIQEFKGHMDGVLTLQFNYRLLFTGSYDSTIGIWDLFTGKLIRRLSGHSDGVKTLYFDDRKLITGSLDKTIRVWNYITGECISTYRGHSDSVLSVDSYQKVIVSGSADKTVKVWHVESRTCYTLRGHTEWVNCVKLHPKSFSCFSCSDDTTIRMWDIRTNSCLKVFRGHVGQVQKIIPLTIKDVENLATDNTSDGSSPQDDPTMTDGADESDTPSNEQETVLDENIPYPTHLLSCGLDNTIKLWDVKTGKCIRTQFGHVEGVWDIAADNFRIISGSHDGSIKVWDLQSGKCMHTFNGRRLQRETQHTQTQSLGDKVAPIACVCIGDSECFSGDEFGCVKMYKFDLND

Binder	binding [1]	binding [2]	binding [3]	binding [4]
Myc-Met30 (Myc-MET30, pK699) (protein, UniProt P39014 1-640) MRRERQRMMSFEDKDKDDLDNSNSNNSSEMTDTAMMPPLKRLLITGSSDDLAQGSSGKKKMTMATRSPSSSPDLATNDSGTRVQPLPEYNFTKFCYRHNPDIQFSPTHTACYKQDLKRTQEINANIAKLPLQEQSDIHHIISKYSNSNDKIRKLILDGILSTSCFPQLSYISSLVTHMIKIDFISILPQELSLKILSYLDCQSLCNATRVCRKWQKLADDDRVWYHMCEQHIDRKCPNCGWGLPLLHMKRARIQQNSTGSSSNADIQTQTTRPWKVIYRERFKVESNWRKGHCRIQEFKGHMDGVLTLQFNYRLLFTGSYDSTIGIWDLFTGKLIRRLSGHSDGVKTLYFDDRKLITGSLDKTIRVWNYITGECISTYRGHSDSVLSVDSYQKVIVSGSADKTVKVWHVESRTCYTLRGHTEWVNCVKLHPKSFSCFSCSDDTTIRMWDIRTNSCLKVFRGHVGQVQKIIPLTIKDVENLATDNTSDGSSPQDDPTMTDGADESDTPSNEQETVLDENIPYPTHLLSCGLDNTIKLWDVKTGKCIRTQFGHVEGVWDIAADNFRIISGSHDGSIKVWDLQSGKCMHTFNGRRLQRETQHTQTQSLGDKVAPIACVCIGDSECFSGDEFGCVKMYKFDLND	binds	binds	binds	
HA-Cdc4 (cdc4Δ::HA-CDC4 strain YMB10217) (protein, UniProt P07834 1-779) MGSFPLAEFPLRDIPVPYSYRVSGGIASSGSVTALVTAAGTHRNSSTAKTVETEDGEEDIDEYQRKRAAGSGESTPERSDFKRVKHDNHKTLHPVNLQNTGAASVDNDGLHNLTDISNDAEKLLMSVDDGSAAPSTLSVNMGVASHNVAAPTTVNAATITGSDVSNNVNSATINNPMEEGALPLSPTASSPGTTTPLAKTTKTINNNNNIADLIESKDSIISPEYLSDEIFSAINNNLPHAYFKNLLFRLVANMDRSELSDLGTLIKDNLKRDLITSLPFEISLKIFNYLQFEDIINSLGVSQNWNKIIRKSTSLWKKLLISENFVSPKGFNSLNLKLSQKYPKLSQQDRLRLSFLENIFILKNWYNPKFVPQRTTLRGHMTSVITCLQFEDNYVITGADDKMIRVYDSINKKFLLQLSGHDGGVWALKYAHGGILVSGSTDRTVRVWDIKKGCCTHVFKGHNSTVRCLDIVEYKNIKYIVTGSRDNTLHVWKLPKESSVPDHGEEHDYPLVFHTPEENPYFVGVLRGHMASVRTVSGHGNIVVSGSYDNTLIVWDVAQMKCLYILSGHTDRIYSTIYDHERKRCISASMDTTIRIWDLENIWNNGECSYATNSASPCAKILGAMYTLQGHTALVGLLRLSDKFLVSAAADGSIRGWDANDYSRKFSYHHTNLSAITTFYVSDNILVSGSENQFNIYNLRSGKLVHANILKDADQIWSVNFKGKTLVAAVEKDGQSFLEILDFSKASKINYVSNPVNSSSSSLESISTSLGLTRTTIIP				binds
Myc-met30Δ77 (Δ1–77 aa, pMB1835) (domain or fragment, UniProt P39014 78-640) DSGTRVQPLPEYNFTKFCYRHNPDIQFSPTHTACYKQDLKRTQEINANIAKLPLQEQSDIHHIISKYSNSNDKIRKLILDGILSTSCFPQLSYISSLVTHMIKIDFISILPQELSLKILSYLDCQSLCNATRVCRKWQKLADDDRVWYHMCEQHIDRKCPNCGWGLPLLHMKRARIQQNSTGSSSNADIQTQTTRPWKVIYRERFKVESNWRKGHCRIQEFKGHMDGVLTLQFNYRLLFTGSYDSTIGIWDLFTGKLIRRLSGHSDGVKTLYFDDRKLITGSLDKTIRVWNYITGECISTYRGHSDSVLSVDSYQKVIVSGSADKTVKVWHVESRTCYTLRGHTEWVNCVKLHPKSFSCFSCSDDTTIRMWDIRTNSCLKVFRGHVGQVQKIIPLTIKDVENLATDNTSDGSSPQDDPTMTDGADESDTPSNEQETVLDENIPYPTHLLSCGLDNTIKLWDVKTGKCIRTQFGHVEGVWDIAADNFRIISGSHDGSIKVWDLQSGKCMHTFNGRRLQRETQHTQTQSLGDKVAPIACVCIGDSECFSGDEFGCVKMYKFDLND		binds		
Myc-met30Δ113 (Δ1–113 aa, pMB1837) (domain or fragment, UniProt P39014 114-640) QDLKRTQEINANIAKLPLQEQSDIHHIISKYSNSNDKIRKLILDGILSTSCFPQLSYISSLVTHMIKIDFISILPQELSLKILSYLDCQSLCNATRVCRKWQKLADDDRVWYHMCEQHIDRKCPNCGWGLPLLHMKRARIQQNSTGSSSNADIQTQTTRPWKVIYRERFKVESNWRKGHCRIQEFKGHMDGVLTLQFNYRLLFTGSYDSTIGIWDLFTGKLIRRLSGHSDGVKTLYFDDRKLITGSLDKTIRVWNYITGECISTYRGHSDSVLSVDSYQKVIVSGSADKTVKVWHVESRTCYTLRGHTEWVNCVKLHPKSFSCFSCSDDTTIRMWDIRTNSCLKVFRGHVGQVQKIIPLTIKDVENLATDNTSDGSSPQDDPTMTDGADESDTPSNEQETVLDENIPYPTHLLSCGLDNTIKLWDVKTGKCIRTQFGHVEGVWDIAADNFRIISGSHDGSIKVWDLQSGKCMHTFNGRRLQRETQHTQTQSLGDKVAPIACVCIGDSECFSGDEFGCVKMYKFDLND		binds		

— PMC7032732
